Laboratory results: PubChem BioAssay AID1347426 (Functional Genomics Laboratory (NCATS/FGL), 2020)
In all, about 31,000 sequences went through this assay and about 1,400 (4.5%) were called active.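 How the source made its calls: active means median seed-adjusted z-score above 1 or below -1; inactive means the rest.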 Some of the results follow.

Assay: Novel Modifiers of Survival Motor Neuron (SMN) Protein: Gene Identification via Genome-wide siRNA Screen;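 further: luminescence tracks full-length SMN protein made from the SMN2 reporter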
Conditions: HEK293T SMN2-luciferase reporter, siRNA knockdown, 72 h; actives lie on both sides
How it was run: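 Luciferase signal, proportional to full-length SMN made from an SMN2 cDNA reporter in stable HEK293T cells, was read 72 h after siRNA reverse transfection. Values were expressed as MAD scores after non-targeting-control normalization and log10 conversion; seed analysis flagged off-targets.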

Row | Sequence | median seed-adjusted z-score
1 | CCACAUGAAAUGAAGAUCATT against NDUFA10 | inactive: -0.392
2 | GGACAUAAUAUAUGGGUGATT against TNFRSF10A | inactive: 0.129
3 | CACCCUGGAUUGUCUUCAATT against HCN4 | inactive: -0.282
4 | CCAUCUACCUACUCAACAATT against MC5R | inactive: 0.225
5 | GAGCUGUAUUUCUAUGUCATT against PLXNA3 | inactive: 0.255
6 | GGAUUGCCCAGGGUUCCUATT against DGKQ | inactive: -0.0985
7 | CCUCAUGACUUCGCAAAUATT against COPB1 | inactive: -0.839
8 | ACCAGAUUGUAUUAAUAUUTT against SOX18 | inactive: 0.0663
9 | CAACUUUGAUGUGCGUGAATT against TOP2A | inactive: -0.187
10 | CUCUAUGUAUGACAAUGAATT against SERTAD1 | inactive: 0.376
11 | GUUCCUAUUUAAUCCCUAUTT against HOXB8 | inactive: 0.133
12 | GCCUGUCUAUAAUUGGAGATT against SPIC | inactive: 0.379
13 | CGUGGGUGUUGACUUCAAATT against RAB12 | inactive: -0.185
14 | GGAUUUCGAUGUCAGACUUTT against RAF1 | inactive: 0
15 | CAGUGUGGAUGUUCCAAAUTT against LRFN4 | inactive: -0.076
16 | GGAAACUAGCUGUUAUACATT against USP40 | inactive: 0.00437
17 | GAUCUGCAAUCCUUAUUAATT against ZNF208 | inactive: 0.265
18 | CAACGAACCUCACUUUGUATT against SEMA4C | inactive: -0.334
19 | GGGAGAGCAUGAUCAUCCATT against GCM1 | inactive: 0.0197
20 | GGAAUUUUGUCACCAUGUUTT against MTNR1A | inactive: 0
21 | CAAUCCUCGAGGAAAAUUATT against ATOH7 | inactive: 0.135
22 | GGUCGUACAUCAGAACUUATT against ZNF565 | inactive: 0.457

Row | Sequence | median seed-adjusted z-score
23 | GAAGGACCGAUUUUACCGATT against PAK1 | inactive: -0.168
24 | CUAUGAUCCCGACUAUGAATT against RAPGEF1 | inactive: 0.304
25 | GCUGAACAUCAGUACUUCATT against MAPK7 | inactive: -0.0118
26 | CCCUAUCACGGACUGCUUATT against ZNF622 | inactive: -0.462
27 | CAUUCGAUCUAGCAAAUUATT against TUBB1 | inactive: -0.289
28 | GGAUGUCCUUCUGACAUAUTT against ITFG1 | inactive: -0.417
29 | GAUUUACCCUUCCAACAGATT against EYA1 | inactive: 0.0838
30 | UGCCCGUCAUUGUCUCCAATT against KCNA7 | inactive: 0.394
31 | GGGCUGUCAAGAAAGCAUATT against KCNAB1 | inactive: 0.721
32 | GAGAGAGAGUACAACAACATT against GABBR2 | inactive: -0.038
33 | CGGACCUAUCAAAAGAAUATT against SNRNP70 | inactive: -0.405
34 | CCAAGAAGAUCAAUGUCAATT against CASKIN1 | inactive: 0.555
35 | GAAGAGCAGCUUAGCGAAATT against AQP9 | inactive: -0.192
36 | GCCGAACAAAUGUACGGAATT against PSMB3 | inactive: -0.725
37 | GGAGUACCGGCUAACAAUATT against MORC4 | inactive: 0.13
38 | CACUUUGAGUGGAUCCAGATT against PRSS21 | inactive: -0.306
39 | GGAUCUCCUCGUCACAUAATT against PLCG2 | inactive: 0
40 | GCUUACAGCUGGAGUGAAATT against SLAMF1 | inactive: -0.104
41 | CUCCAAUCCCUGUACCUCUTT against KRT31 | inactive: 0.604
42 | CCGGAGCUGUUCCACAAGATT against KCNAB2 | inactive: 0
43 | CUCCUGCUGCAAAACAAUATT against SLC25A6 | inactive: -0.928
44 | GGACUCUCGUGAAGAGAAATT against DNAI1 | inactive: -0.783

Row | Sequence | median seed-adjusted z-score
45 | GGCUGACCAUGACUGUUUUTT against PTGER3 | inactive: -0.321
46 | CGCAAAAAGGCAGACGAAATT against DUX5 | inactive: -0.295
47 | CAAUUGAAGGAGUCUAUAATT against TXNRD3 | inactive: 0.69
48 | AUAUAUUACAGUCACACCATT against KCNK15 | inactive: -0.218
49 | GUGAGACAGUUGACCGAGATT against SLC26A2 | active: -1.25
50 | GGAGGUCUGUUCUAUCUGUTT against MDFI | inactive: 0.279
51 | GGUUCACAGAUGAUACGUUTT against RAB18 | inactive: 0
52 | GAGGAGUACUUCAGCAACATT against DAPK3 | inactive: -0.105
53 | GCUGAUUUUUGCUAAUAAATT against ARL5A | inactive: 0
54 | AGAUUUUGCUAAAUGGAAATT against LSM5 | inactive: -0.661
55 | CGAGUAUUCCGGAUCUUCATT against KCNA4 | inactive: -0.634
56 | CUCUCAAAGUGUUAAAGAATT against CAMK4 | inactive: 0
57 | CAGAGAAGGUUUCAGAAGATT against DLX5 | inactive: 0.115
58 | GAGAGUGCCUUACACCAAATT against HOXD13 | inactive: 0.116
59 | CAAUUUAGAUCAGGAAGUATT against RBM7 | inactive: 0
60 | GCUUCAUUGUGGACCGGCATT against GALNTL4 | inactive: 0
61 | GCAACCAGAUUUUCAUAAATT against ALDH2 | inactive: -0.216
62 | GAAGAUUGAGUAUGCCUUUTT against CIB4 | inactive: -0.638
63 | GCAGGACCUCAUAAGGAAATT against COX5A | inactive: -0.348
64 | GAAGGCCCAUUGGUAUAUATT against STXBP4 | inactive: -0.565
65 | CAAGUAUGGUGACAUCGUATT against POLR3A | inactive: 0.395
66 | GGAGAGUUCUGGACAGCCUTT against MALL | inactive: -0.477

Row | Sequence | median seed-adjusted z-score
67 | GGAGAAUUGAUGUUUCUCATT against CBX3 | inactive: -0.893
68 | GGAACUUUUUGCUAUAGAUTT against PDS5A | inactive: -0.29
69 | GGAACUUUGGGUCCUGAAUTT against ZNF251 | inactive: -0.851
70 | CAAUUGCUCUUAUCCUGUUTT against ZBTB26 | inactive: 0
71 | CAUGCACUGGAGUUAAUUATT against CHRFAM7A | inactive: 0.115
72 | GCUGUGAAUUCAAUUGCAATT against SRI | inactive: 0.994
73 | CCAAUAUUCGACUUGCGUATT against XPO1 | active: 1.12
74 | GCUGUUGGAUAAUUAUGAATT against RFX2 | inactive: 0.271
75 | CGAUGGGUUCUUUCUAAAATT against SIGLEC10 | inactive: 0.0542
76 | GACACUAUGAUUAAACUAUTT against EPM2A | inactive: 0.319
77 | CCUACACGGUCCUUCGUAATT against HEPHL1 | inactive: 0.0681
78 | GGAUUCCAGUAUCAUCCGATT against RHOBTB3 | inactive: 0.256
79 | GGCCUUUGCUCAUACUGCATT against ZNF514 | inactive: 0.125
80 | CAGAAGACCUGGUGCCCUATT against SPI1 | inactive: 0.384
81 | GGAACAAAAGGAUCGAAUATT against CLSTN3 | inactive: 0
82 | CGACUGCUGCGAAUCGUUUTT against LGR4 | inactive: 0.14
83 | CGAAUGCCCUAAUGUCAAATT against DNAJB11 | inactive: -0.0495
84 | UGAUGGGAUUUGAUCUGAATT against AGBL4 | inactive: 0.487
85 | AGCAGAGACUCACAACUUUTT against PFAS | inactive: 0.0344
86 | CGGACCCGCUGAGACAUUATT against HOXB6 | inactive: -0.168
87 | CUGUUUGAGAGAAACCCAATT against ALK | inactive: 0.0139
88 | GCAUAAGAGGGAAUUCACATT against TAGLN | inactive: 0.0485

A different layout for some results above:
Row	Sequence	median seed-adjusted z-score
59	CAAUUUAGAUCAGGAAGUATT against RBM7	inactive: 0
60	GCUUCAUUGUGGACCGGCATT against GALNTL4	inactive: 0
61	GCAACCAGAUUUUCAUAAATT against ALDH2	inactive: -0.216
62	GAAGAUUGAGUAUGCCUUUTT against CIB4	inactive: -0.638
64	GAAGGCCCAUUGGUAUAUATT against STXBP4	inactive: -0.565
65	CAAGUAUGGUGACAUCGUATT against POLR3A	inactive: 0.395
66	GGAGAGUUCUGGACAGCCUTT against MALL	inactive: -0.477
67	GGAGAAUUGAUGUUUCUCATT against CBX3	inactive: -0.893
68	GGAACUUUUUGCUAUAGAUTT against PDS5A	inactive: -0.29
69	GGAACUUUGGGUCCUGAAUTT against ZNF251	inactive: -0.851
70	CAAUUGCUCUUAUCCUGUUTT against ZBTB26	inactive: 0
71	CAUGCACUGGAGUUAAUUATT against CHRFAM7A	inactive: 0.115
72	GCUGUGAAUUCAAUUGCAATT against SRI	inactive: 0.994
73	CCAAUAUUCGACUUGCGUATT against XPO1	active: 1.12
75	CGAUGGGUUCUUUCUAAAATT against SIGLEC10	inactive: 0.0542
76	GACACUAUGAUUAAACUAUTT against EPM2A	inactive: 0.319
77	CCUACACGGUCCUUCGUAATT against HEPHL1	inactive: 0.0681
78	GGAUUCCAGUAUCAUCCGATT against RHOBTB3	inactive: 0.256
79	GGCCUUUGCUCAUACUGCATT against ZNF514	inactive: 0.125
80	CAGAAGACCUGGUGCCCUATT against SPI1	inactive: 0.384
81	GGAACAAAAGGAUCGAAUATT against CLSTN3	inactive: 0
82	CGACUGCUGCGAAUCGUUUTT against LGR4	inactive: 0.14
83	CGAAUGCCCUAAUGUCAAATT against DNAJB11	inactive: -0.0495
84	UGAUGGGAUUUGAUCUGAATT against AGBL4	inactive: 0.487
85	AGCAGAGACUCACAACUUUTT against PFAS	inactive: 0.0344
86	CGGACCCGCUGAGACAUUATT against HOXB6	inactive: -0.168
88	GCAUAAGAGGGAAUUCACATT against TAGLN	inactive: 0.0485

The list continues:

Row | Sequence | median seed-adjusted z-score
89 | GGGCAUGUUUCGUACCGUUTT against MYH10 | inactive: 0.0877
90 | GCCCAUAUUUCAUCGUGUATT against NPY | inactive: -0.0606
91 | CCGGACUUCAGAUACGUUATT against DSCAM | inactive: -0.527
92 | GCUACACCAAGGUCCCUGATT against SPRR3 | inactive: 0.682
93 | GGAAGCUCCUUGUCAAGAUTT against MECP2 | inactive: -0.332
94 | CCAGCUCUUUGCACAUGAATT against PPP1R3F | inactive: 0.781
95 | GACAGGUACUUCUAAGUCATT against AHSA1 | inactive: 0.489
96 | CAAGAACUCGGAUAAUGAUTT against IL2RG | inactive: -0.155
97 | CAGUGACUGUUGUUGGUCUTT against PKD1L3 | inactive: -0.658
98 | GGACGAGAGAUGUACAUUATT against CNGA1 | active: -1.08
99 | GGGUAAUGGUGGGUCUUAATT against EFHD1 | inactive: -0.326
100 | GAACAUUAGUCAGAUGAUUTT against LIPF | inactive: 0.54
101 | CGAAGCAGCUGAUCAGAAUTT against AKAP7 | inactive: 0.37
102 | GGAUGUUUUCCGGUUCAUATT against LOC4951 | inactive: 0.0691
103 | CCGUGGACGAGUUCAAGAATT against HPCAL1 | inactive: -0.00535
104 | GCCUUAAAAUCAUAGUUGUTT against ACSL1 | inactive: 0.264
105 | CGAUGAAACCUAUGAUUAUTT against HNRPK | inactive: 0.296
106 | CAGACACUGUCUACAAGAATT against DPYSL5 | inactive: 0.0624
107 | GGAAACUUCUCACCUAUGATT against MAGED1 | inactive: 0.524
108 | AGGUCAACACGGAGCUCAATT against CHRM1 | active: 1.1
